# Experimental data as given in publication PMC4013626.
# Amino acid sequences for entries named in this document (tags omitted).
# UniProt P49407: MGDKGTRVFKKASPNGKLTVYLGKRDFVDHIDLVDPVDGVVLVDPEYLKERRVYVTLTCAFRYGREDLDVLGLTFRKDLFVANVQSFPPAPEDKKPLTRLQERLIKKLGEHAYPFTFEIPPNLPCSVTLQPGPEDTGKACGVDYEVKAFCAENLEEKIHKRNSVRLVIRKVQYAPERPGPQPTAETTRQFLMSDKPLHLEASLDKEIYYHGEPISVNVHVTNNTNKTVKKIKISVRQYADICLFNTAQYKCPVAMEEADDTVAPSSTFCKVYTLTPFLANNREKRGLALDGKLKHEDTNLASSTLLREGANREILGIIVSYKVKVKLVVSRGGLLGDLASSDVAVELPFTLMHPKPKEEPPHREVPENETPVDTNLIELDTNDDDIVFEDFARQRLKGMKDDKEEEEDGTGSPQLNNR
# UniProt P32121: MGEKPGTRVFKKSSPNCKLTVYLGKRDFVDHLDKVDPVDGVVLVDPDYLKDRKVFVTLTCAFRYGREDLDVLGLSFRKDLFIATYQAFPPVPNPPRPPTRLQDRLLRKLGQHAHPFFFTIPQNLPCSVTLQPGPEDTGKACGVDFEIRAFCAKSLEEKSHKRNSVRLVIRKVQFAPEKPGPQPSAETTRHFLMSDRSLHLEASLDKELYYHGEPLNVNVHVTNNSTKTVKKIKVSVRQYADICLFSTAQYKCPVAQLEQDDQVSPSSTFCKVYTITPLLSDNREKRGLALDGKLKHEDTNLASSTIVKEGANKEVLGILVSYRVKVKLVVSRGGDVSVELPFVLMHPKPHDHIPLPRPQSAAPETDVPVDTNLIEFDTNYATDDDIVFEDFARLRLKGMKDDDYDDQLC
# UniProt Q09QM4: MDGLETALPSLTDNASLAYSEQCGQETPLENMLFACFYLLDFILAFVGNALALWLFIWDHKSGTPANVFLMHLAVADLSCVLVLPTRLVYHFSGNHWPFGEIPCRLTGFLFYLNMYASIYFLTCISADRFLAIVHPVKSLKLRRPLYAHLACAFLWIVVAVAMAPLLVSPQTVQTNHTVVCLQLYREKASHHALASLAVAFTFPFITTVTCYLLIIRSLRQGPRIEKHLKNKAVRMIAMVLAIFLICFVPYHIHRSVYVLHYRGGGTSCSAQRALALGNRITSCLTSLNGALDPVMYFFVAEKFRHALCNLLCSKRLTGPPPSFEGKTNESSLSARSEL
# UniProt Q13304: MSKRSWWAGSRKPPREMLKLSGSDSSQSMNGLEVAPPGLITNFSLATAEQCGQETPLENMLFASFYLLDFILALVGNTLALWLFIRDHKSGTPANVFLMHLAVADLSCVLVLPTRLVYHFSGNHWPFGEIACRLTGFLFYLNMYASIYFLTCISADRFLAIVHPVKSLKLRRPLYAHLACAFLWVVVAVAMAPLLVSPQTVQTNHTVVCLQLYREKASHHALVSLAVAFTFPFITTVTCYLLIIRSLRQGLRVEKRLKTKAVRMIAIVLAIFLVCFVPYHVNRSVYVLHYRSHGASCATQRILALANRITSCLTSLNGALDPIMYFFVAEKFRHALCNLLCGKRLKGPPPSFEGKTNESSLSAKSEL
# UniProt Q62833: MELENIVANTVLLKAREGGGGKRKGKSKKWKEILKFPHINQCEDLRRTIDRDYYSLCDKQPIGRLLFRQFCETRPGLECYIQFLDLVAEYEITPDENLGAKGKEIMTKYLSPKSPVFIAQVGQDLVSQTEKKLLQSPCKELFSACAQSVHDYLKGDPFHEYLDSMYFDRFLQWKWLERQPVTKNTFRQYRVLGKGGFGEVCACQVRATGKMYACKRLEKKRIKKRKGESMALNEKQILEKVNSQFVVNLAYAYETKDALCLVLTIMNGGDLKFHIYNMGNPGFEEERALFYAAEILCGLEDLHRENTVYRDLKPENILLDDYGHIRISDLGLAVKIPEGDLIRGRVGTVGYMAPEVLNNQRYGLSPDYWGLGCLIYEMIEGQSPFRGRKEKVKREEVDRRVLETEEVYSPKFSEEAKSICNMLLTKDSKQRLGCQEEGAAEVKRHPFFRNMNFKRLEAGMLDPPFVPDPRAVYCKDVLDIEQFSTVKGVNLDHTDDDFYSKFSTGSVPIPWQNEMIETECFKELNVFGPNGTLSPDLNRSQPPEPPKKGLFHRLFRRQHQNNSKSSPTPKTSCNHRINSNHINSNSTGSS
# UniProt P26817: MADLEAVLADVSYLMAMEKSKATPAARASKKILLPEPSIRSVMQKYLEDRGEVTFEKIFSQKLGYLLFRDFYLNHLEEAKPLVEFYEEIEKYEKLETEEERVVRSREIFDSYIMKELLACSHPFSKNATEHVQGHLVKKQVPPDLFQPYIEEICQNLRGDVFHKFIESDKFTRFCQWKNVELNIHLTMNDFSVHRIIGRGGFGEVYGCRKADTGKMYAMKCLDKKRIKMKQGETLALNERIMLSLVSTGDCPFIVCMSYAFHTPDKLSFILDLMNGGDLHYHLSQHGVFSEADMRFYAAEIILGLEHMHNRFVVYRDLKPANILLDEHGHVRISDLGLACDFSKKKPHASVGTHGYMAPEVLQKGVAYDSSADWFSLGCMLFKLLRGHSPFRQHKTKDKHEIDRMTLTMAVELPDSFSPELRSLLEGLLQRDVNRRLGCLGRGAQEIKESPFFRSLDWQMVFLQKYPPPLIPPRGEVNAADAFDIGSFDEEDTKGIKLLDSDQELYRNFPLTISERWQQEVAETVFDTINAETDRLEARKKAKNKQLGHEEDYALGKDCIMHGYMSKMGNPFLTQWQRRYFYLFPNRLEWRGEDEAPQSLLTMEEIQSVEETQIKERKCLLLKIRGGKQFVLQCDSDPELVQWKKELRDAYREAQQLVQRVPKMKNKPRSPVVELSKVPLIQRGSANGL
# UniProt P34947: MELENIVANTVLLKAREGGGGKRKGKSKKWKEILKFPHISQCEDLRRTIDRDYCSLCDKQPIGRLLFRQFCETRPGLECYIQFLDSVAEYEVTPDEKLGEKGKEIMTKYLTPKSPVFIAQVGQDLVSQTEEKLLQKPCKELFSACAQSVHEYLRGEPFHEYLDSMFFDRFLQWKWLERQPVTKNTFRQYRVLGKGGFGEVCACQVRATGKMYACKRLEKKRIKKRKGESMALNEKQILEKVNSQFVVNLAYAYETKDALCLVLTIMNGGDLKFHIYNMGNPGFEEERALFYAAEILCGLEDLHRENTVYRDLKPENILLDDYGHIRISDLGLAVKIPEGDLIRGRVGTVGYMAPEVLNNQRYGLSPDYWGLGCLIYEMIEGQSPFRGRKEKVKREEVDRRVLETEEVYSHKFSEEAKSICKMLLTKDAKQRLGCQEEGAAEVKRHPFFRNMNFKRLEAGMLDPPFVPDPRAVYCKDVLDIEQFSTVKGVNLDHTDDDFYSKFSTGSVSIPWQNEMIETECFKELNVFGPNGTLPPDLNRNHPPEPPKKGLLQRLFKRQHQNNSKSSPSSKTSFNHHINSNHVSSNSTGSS
# UniProt P25098: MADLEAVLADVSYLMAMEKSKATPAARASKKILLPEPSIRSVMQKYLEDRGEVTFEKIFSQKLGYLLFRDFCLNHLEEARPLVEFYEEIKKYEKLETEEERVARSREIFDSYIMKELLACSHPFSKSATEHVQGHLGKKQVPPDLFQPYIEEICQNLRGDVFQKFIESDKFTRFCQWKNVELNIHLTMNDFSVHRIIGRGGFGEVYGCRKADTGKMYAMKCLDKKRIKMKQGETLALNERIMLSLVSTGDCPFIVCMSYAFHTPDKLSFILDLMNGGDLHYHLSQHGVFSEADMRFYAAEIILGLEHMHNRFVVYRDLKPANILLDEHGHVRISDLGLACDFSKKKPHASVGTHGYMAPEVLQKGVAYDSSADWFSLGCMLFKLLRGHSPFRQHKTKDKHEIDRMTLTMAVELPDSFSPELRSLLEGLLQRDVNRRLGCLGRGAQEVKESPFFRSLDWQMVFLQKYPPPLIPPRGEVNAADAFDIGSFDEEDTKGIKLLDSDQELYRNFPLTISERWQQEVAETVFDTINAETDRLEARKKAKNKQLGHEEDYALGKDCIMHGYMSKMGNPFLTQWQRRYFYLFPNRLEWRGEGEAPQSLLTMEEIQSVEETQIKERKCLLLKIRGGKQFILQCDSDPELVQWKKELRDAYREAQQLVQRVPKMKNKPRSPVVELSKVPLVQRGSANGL
# These are yes or no findings as the source states them, for the method shown. For some assays here: Binding seen in cells or lysates may run through a third protein. Some binding calls cover weakened binding; strength is not graded here.
# Experiments:
# [1] = target: β-arrestin1 (1321N1 cells) (human (endogenous in 1321N1)) (UniProt P49407); assay: condition: only cells treated with 100 nM LTD4 for 30 min; co-IP; as a5, 1321N1 HA Tag-GPR17 cells treated with 100 nM LTD4 for 30 min
# [2] = target: β-arrestin2 (1321N1 cells) (human (endogenous in 1321N1)) (UniProt P32121); assay: as above
# [3] = target: β-arrestin1 (1321N1 cells) (human (endogenous in 1321N1)) (UniProt P49407); assay: co-IP; 1321N1 HA Tag-GPR17 cells, RIPA lysate (1.5 mg), immunoprecipitation with anti-β-arrestin antibodies, blot with anti-HA Tag (the legend tells the reverse order); cells basal, 100 μM UDP-glucose (5 or 30 min) or 100 nM LTD4 (5 min)
# [4] = target: β-arrestin2 (1321N1 cells) (human (endogenous in 1321N1)) (UniProt P32121); assay: as above
# [5] = target: GPR17 (native, primary oligodendrocyte precursor cells) (rat (endogenous in primary OPCs)) (UniProt Q09QM4); assay: co-IP; primary OPCs, RIPA lysate (1 mg), immunoprecipitation with home-made rabbit anti-GPR17 antibody, blot with anti-GRK2 or anti-GRK5; cells basal, 5 μM UDP-glucose or 50 nM LTD4 for 5 min
# [6] = target: GPR17 (native, primary oligodendrocyte precursor cells) (rat (endogenous in primary OPCs)) (UniProt Q09QM4); assay: ELISA; sandwich immunoenzymatic assay on crude lysates (10 μg) of primary OPCs; GPR17 captured on wells coated with anti-N terminus GPR17 antibody, partner detected with its primary antibody, HRP secondary, TMB, A450; cells basal, 5 μM UDP-glucose or 50 nM LTD4 for 5 min (UDP-glucose also 30 min)
# HA Tag-GPR17 [7] = target: HA Tag-GPR17 (UniProt Q13304); assay: co-IP; 1321N1 HA Tag-GPR17 cells, RIPA lysate (1 mg), immunoprecipitation with anti-HA Tag antibody, blot with anti-GRK2 or anti-GRK5; cells basal, 100 μM UDP-glucose or 100 nM LTD4 for 5 min
# HA Tag-GPR17 [8] = target: HA Tag-GPR17 (UniProt Q13304); assay: ELISA; sandwich immunoenzymatic assay on crude lysates (10 μg) of 1321N1 HA Tag-GPR17 cells; HA Tag-GPR17 captured on wells coated with anti-HA Tag antibody, partner detected with its primary antibody, HRP secondary, TMB, A450; cells basal, 100 μM UDP-glucose or 100 nM LTD4 for 5 min (UDP-glucose also 30 min)
# HA Tag-GPR17 [9] = target: HA Tag-GPR17 (UniProt Q13304); assay: condition: only cells treated with 100 nM LTD4 for 30 min; ELISA; as a1, 1321N1 HA Tag-GPR17 cells treated with 100 nM LTD4 for 30 min
binding [5],binding [6],binding (HA Tag-GPR17 [7]),binding (HA Tag-GPR17 [8]),Substance,other results
–,–,–,–,HA Tag-GPR17 (from UniProt Q13304 1-367) (receptor),binding [1]: no binding; binding [2]: no binding; binding [3]: binds; binding [4]: binds
binds,binds,–,–,GRK5 (primary OPCs) (from UniProt Q62833 1-590) (enzyme),–
binds,binds,–,–,GRK2 (primary OPCs) (from UniProt P26817 1-689) (enzyme),–
–,–,binds,binds,GRK5 (1321N1 cells) (from UniProt P34947 1-590) (enzyme),–
–,–,–,binds,β-arrestin1 (1321N1 cells) (from UniProt P49407 1-418),binding (HA Tag-GPR17 [9]): no binding
–,–,binds,binds,GRK2 (1321N1 cells) (from UniProt P25098 1-689) (enzyme),–
